Results from the supplement of paper PMC6418307.
Single values of this set are uncertain. Peptide text beside a SMILES is read from it. * marks the point of attachment. Cbz = O=C(OCc1ccccc1)*

Test system: primary mouse cortical neurons
Experiment: cell health score (luciferase spike-in reads / total reads per well) (fraction); higher = fewer cellular reads, worse cell health / toxicity
Conditions: treatment time 24 h
[1] = 0.01 µM, sex of neuron culture: Female
[2] = 0.01 µM, sex of neuron culture: Male
[3] = 0.1 µM, sex of neuron culture: Female
[4] = 0.1 µM, sex of neuron culture: Male
[5] = 1 µM, sex of neuron culture: Female
[6] = 1 µM, sex of neuron culture: Male
[7] = 10 µM, sex of neuron culture: Female
[8] = 10 µM, sex of neuron culture: Male

SMILES: O=[N+]([O-])[O-].O=[N+]([O-])[O-].[Pb+2] [Lead (II) Nitrate]
- cell health score [1]: 0.000475
- cell health score [2]: 0.000744
- cell health score [3]: 0.000654
- cell health score [4]: 0.00162
- cell health score [5]: 0.000703
- cell health score [6]: 0.000681
- cell health score [7]: 0.000491
- cell health score [8]: 0.000507

SMILES: C[C@H]1COc2c(N3CCN(C)CC3)c(F)cc3c(=O)c(C(=O)O)cn1c23 [Levofloxacin]
- cell health score [1]: 0.000469
- cell health score [2]: 0.000682
- cell health score [3]: 0.000882
- cell health score [4]: 0.000681
- cell health score [5]: 0.000832
- cell health score [6]: 0.000569
- cell health score [7]: 0.000862
- cell health score [8]: 0.000722

SMILES: Cl[C@H]1[C@H](Cl)[C@@H](Cl)[C@@H](Cl)[C@H](Cl)[C@H]1Cl [Lindane]
- cell health score [1]: 0.000947
- cell health score [2]: 0.000582
- cell health score [3]: 0.00112
- cell health score [4]: 0.00108
- cell health score [5]: 0.000564
- cell health score [6]: 0.000698
- cell health score [7]: 0.000689
- cell health score [8]: 0.000614

SMILES: CON(C)C(=O)Nc1ccc(Cl)c(Cl)c1 [Linuron]
- cell health score [1]: 0.000448
- cell health score [2]: 0.000586
- cell health score [3]: 0.000885
- cell health score [4]: 0.000566
- cell health score [5]: 0.00103
- cell health score [6]: 0.000877
- cell health score [7]: 0.00111
- cell health score [8]: 0.000704

SMILES: CC(C)C[C@@H](C=O)NC(=O)[C@H](CC(C)C)NC(=O)[C@H](CC(C)C)NC(=O)OCc1ccccc1 [MG132] (Cbz-Leu-Leu-Leu-aldehyde)
- cell health score [1]: 0.0019
- cell health score [2]: 0.00164
- cell health score [3]: 0.00396
- cell health score [4]: 0.00224
- cell health score [5]: 0.00394
- cell health score [6]: 0.00138
- cell health score [7]: 0.00517
- cell health score [8]: 0.00334

SMILES: CCCCC(CC)CN1C(=O)[C@@H]2[C@H](C1=O)[C@@H]1C=C[C@H]2C1 (stereo partly drawn) [MGK-264]
- cell health score [1]: 0.000584
- cell health score [2]: 0.000546
- cell health score [3]: 0.000762
- cell health score [4]: 0.000916
- cell health score [5]: 0.000962
- cell health score [6]: 0.000403
- cell health score [7]: 0.0011
- cell health score [8]: 0.000441

SMILES: CCOC(=O)CC(SP(=O)(OC)OC)C(=O)OCC (stereo not drawn) [Malaoxon]
- cell health score [1]: 0.000463
- cell health score [2]: 0.000951
- cell health score [3]: 0.00169
- cell health score [4]: 0.000755
- cell health score [5]: 0.000856
- cell health score [6]: 0.000708
- cell health score [7]: 0.00092
- cell health score [8]: 0.00049

SMILES: CCOC(=O)CC(SP(=S)(OC)OC)C(=O)OCC (stereo not drawn) [Malathion]
- cell health score [1]: 0.000601
- cell health score [2]: 0.000753
- cell health score [3]: 0.000613
- cell health score [4]: 0.000687
- cell health score [5]: 0.000992
- cell health score [6]: 0.000386
- cell health score [7]: 0.000894
- cell health score [8]: 0.000469

SMILES: S=C([S-])NCCNC(=S)[S-].S=C([S-])NCCNC(=S)[S-].[Mn+2].[Zn+2] [Mancozeb]
- cell health score [1]: 0.000584
- cell health score [2]: 0.000801
- cell health score [3]: 0.000738
- cell health score [4]: 0.000656
- cell health score [5]: 0.000854
- cell health score [6]: 0.000594
- cell health score [7]: 0.000768
- cell health score [8]: 0.000579

SMILES: S=C([S-])NCCNC(=S)[S-].[Mn+2] [Maneb]
- cell health score [1]: 0.000607
- cell health score [2]: 0.000578
- cell health score [3]: 0.000687
- cell health score [4]: 0.000834
- cell health score [5]: 0.000699
- cell health score [6]: 0.00111
- cell health score [7]: 0.000992
- cell health score [8]: 0.000882

SMILES: C[N+]1(C)CCCCC1 [Mepiquat chloride]
- cell health score [1]: 0.000597
- cell health score [2]: 0.000473
- cell health score [3]: 0.000869
- cell health score [4]: 0.00114
- cell health score [5]: 0.000617
- cell health score [6]: 0.000534
- cell health score [7]: 0.00122
- cell health score [8]: 0.000499

SMILES: CS(=O)(=O)c1ccc(C(=O)C2C(=O)CCCC2=O)c([N+](=O)[O-])c1 [Mesotrione]
- cell health score [1]: 0.00082
- cell health score [2]: 0.000851
- cell health score [3]: 0.00148
- cell health score [4]: 0.00107
- cell health score [5]: 0.000695
- cell health score [6]: 0.000655
- cell health score [7]: 0.00115
- cell health score [8]: 0.000508

SMILES: COCC(=O)N(c1c(C)cccc1C)C(C)C(=O)OC (stereo not drawn) [Metalaxyl]
- cell health score [1]: 0.000644
- cell health score [2]: 0.000678
- cell health score [3]: 0.000779
- cell health score [4]: 0.000781
- cell health score [5]: 0.00111
- cell health score [6]: 0.000725
- cell health score [7]: 0.00128
- cell health score [8]: 0.000568

SMILES: CNC(=S)S [Metam-sodium hydrate]
- cell health score [1]: 0.000614
- cell health score [2]: 0.00115
- cell health score [3]: 0.00079
- cell health score [4]: 0.000766
- cell health score [5]: 0.00132
- cell health score [6]: 0.000703
- cell health score [7]: 0.00101
- cell health score [8]: 0.000412

SMILES: COP(N)(=O)SC (stereo not drawn) [Methamidophos]
- cell health score [1]: 0.000556
- cell health score [2]: 0.00078
- cell health score [3]: 0.000888
- cell health score [4]: 0.000627
- cell health score [5]: 0.000728
- cell health score [6]: 0.000618
- cell health score [7]: 0.00107
- cell health score [8]: 0.00041

SMILES: COc1nn(CSP(=S)(OC)OC)c(=O)s1 [Methidathion]
- cell health score [1]: 0.000398
- cell health score [2]: 0.000869
- cell health score [3]: 0.00175
- cell health score [4]: 0.000912
- cell health score [5]: 0.000851
- cell health score [6]: 0.000591
- cell health score [7]: 0.00141
- cell health score [8]: 0.000468

SMILES: CNC(=O)ON=C(C)SC [Methomyl]
- cell health score [1]: 0.000677
- cell health score [2]: 0.00071
- cell health score [3]: 0.000501
- cell health score [4]: 0.000794
- cell health score [5]: 0.000731
- cell health score [6]: 0.000689
- cell health score [7]: 0.00141
- cell health score [8]: 0.000658

SMILES: COc1ccc(C(c2ccc(OC)cc2)C(Cl)(Cl)Cl)cc1 [Methoxychlor]
- cell health score [1]: 0.000409
- cell health score [2]: 0.000911
- cell health score [3]: 0.000709
- cell health score [4]: 0.000898
- cell health score [5]: 0.000722
- cell health score [6]: 0.000806
- cell health score [7]: 0.001
- cell health score [8]: 0.000706

SMILES: COc1cccc(C(=O)NN(C(=O)c2cc(C)cc(C)c2)C(C)(C)C)c1C [Methoxyfenozide]
- cell health score [1]: 0.000438
- cell health score [2]: 0.000695
- cell health score [3]: 0.000943
- cell health score [4]: 0.000946
- cell health score [5]: 0.000707
- cell health score [6]: 0.00059
- cell health score [7]: 0.00143
- cell health score [8]: 0.00047

SMILES: CN=C=S [Methyl isothiocyanate]
- cell health score [1]: 0.000528
- cell health score [2]: 0.000609
- cell health score [3]: 0.00222
- cell health score [4]: 0.00069
- cell health score [5]: 0.000851
- cell health score [6]: 0.000975
- cell health score [7]: 0.000702
- cell health score [8]: 0.000588

SMILES: COP(=S)(OC)Oc1ccc([N+](=O)[O-])cc1 [Methyl parathion]
- cell health score [1]: 0.000693
- cell health score [2]: 0.000898
- cell health score [3]: 0.000886
- cell health score [4]: 0.000752
- cell health score [5]: 0.000687
- cell health score [6]: 0.000589
- cell health score [7]: 0.000948
- cell health score [8]: 0.000531

SMILES: N#CSCSC#N [Methylene bis(thiocyanate)]
- cell health score [1]: 0.000611
- cell health score [2]: 0.00107
- cell health score [3]: 0.000695
- cell health score [4]: 0.000719
- cell health score [5]: 0.000944
- cell health score [6]: 0.000463
- cell health score [7]: 0.000917
- cell health score [8]: 0.000471

SMILES: CCc1cccc(C)c1N(C(=O)CCl)C(C)COC (stereo not drawn) [Metolachlor]
- cell health score [1]: 0.000617
- cell health score [2]: 0.000765
- cell health score [3]: 0.000751
- cell health score [4]: 0.000873
- cell health score [5]: 0.00115
- cell health score [6]: 0.000537
- cell health score [7]: 0.00131
- cell health score [8]: 0.000893

SMILES: CSc1nnc(C(C)(C)C)c(=O)n1N [Metribuzin]
- cell health score [1]: 0.000479
- cell health score [2]: 0.000744
- cell health score [3]: 0.00142
- cell health score [4]: 0.00124
- cell health score [5]: 0.000911
- cell health score [6]: 0.000581
- cell health score [7]: 0.000984
- cell health score [8]: 0.000618

SMILES: COC(=O)C=C(C)OP(=O)(OC)OC [Mevinphos]
- cell health score [1]: 0.000415
- cell health score [2]: 0.000604
- cell health score [3]: 0.000582
- cell health score [4]: 0.00074
- cell health score [5]: 0.00076
- cell health score [6]: 0.00066
- cell health score [7]: 0.00109
- cell health score [8]: 0.00235

SMILES: CCSC(=O)N1CCCCCC1 [Molinate]
- cell health score [1]: 0.000578
- cell health score [2]: 0.000574
- cell health score [3]: 0.00126
- cell health score [4]: 0.000703
- cell health score [5]: 0.00118
- cell health score [6]: 0.000547
- cell health score [7]: 0.000952
- cell health score [8]: 0.000424
